Assay results taken from paper PMC10750215.

Protein sequences, listed by entry. Tags and fused reporters are not part of them.
UniProt Q15672: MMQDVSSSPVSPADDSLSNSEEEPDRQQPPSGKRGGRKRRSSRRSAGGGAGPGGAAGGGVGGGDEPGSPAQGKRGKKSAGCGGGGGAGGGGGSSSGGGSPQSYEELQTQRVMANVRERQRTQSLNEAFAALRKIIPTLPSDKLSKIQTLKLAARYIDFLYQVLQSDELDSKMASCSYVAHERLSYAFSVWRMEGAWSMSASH
UniProt P25490: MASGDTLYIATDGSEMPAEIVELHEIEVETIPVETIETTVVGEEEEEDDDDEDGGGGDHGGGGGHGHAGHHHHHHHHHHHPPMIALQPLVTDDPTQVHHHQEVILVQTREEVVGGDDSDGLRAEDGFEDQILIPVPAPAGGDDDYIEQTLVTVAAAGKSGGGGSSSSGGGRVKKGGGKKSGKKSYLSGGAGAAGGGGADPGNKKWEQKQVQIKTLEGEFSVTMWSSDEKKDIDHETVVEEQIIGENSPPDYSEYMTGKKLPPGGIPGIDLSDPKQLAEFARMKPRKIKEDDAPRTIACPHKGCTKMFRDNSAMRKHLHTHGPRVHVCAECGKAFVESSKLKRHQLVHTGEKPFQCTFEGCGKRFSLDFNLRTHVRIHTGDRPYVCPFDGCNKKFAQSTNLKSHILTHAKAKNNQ

How the values were obtained:
[1] = biological target: T1, FLAG-VDBP (vitamin D binding protein, overexpressed) (UniProt P02774); assay: affinity purification with mass spectrometry; FLAG-VDBP pull-down from the lysate of MHCC-97H cells overexpressing VDBP, Matrigel 3D culture; silver staining and MS analysis
T1 sequence: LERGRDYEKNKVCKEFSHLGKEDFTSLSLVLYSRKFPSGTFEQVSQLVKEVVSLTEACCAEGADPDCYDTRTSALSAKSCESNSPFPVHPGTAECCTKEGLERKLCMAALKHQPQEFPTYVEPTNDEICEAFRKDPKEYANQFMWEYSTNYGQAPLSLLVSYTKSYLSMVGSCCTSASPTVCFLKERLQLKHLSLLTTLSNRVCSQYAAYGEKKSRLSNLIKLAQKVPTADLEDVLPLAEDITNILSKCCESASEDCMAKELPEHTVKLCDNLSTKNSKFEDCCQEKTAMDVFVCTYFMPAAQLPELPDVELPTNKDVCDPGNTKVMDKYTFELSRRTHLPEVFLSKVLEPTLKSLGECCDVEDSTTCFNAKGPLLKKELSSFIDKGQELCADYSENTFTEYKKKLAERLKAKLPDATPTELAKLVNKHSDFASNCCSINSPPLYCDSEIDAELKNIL

[2] = biological target: T2, Flag-VDR (vitamin D receptor, overexpressed) (UniProt P11473); assay: affinity purification with mass spectrometry; Flag-VDR pull-down from the nuclear lysate of MHCC-97H cells; silver staining and MS analysis
T2 sequence: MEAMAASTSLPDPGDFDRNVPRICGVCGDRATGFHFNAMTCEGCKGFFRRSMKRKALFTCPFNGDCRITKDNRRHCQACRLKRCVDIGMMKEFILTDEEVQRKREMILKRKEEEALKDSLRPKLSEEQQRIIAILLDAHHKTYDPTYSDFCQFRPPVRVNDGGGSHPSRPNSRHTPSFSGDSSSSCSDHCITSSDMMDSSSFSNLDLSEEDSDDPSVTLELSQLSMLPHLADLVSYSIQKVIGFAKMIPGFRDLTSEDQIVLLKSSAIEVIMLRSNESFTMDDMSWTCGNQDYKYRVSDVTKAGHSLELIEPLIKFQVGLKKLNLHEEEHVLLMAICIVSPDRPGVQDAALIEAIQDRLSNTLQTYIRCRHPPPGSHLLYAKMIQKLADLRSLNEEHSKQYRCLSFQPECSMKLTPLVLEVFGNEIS

Row | binding [1] | binding [2] | Substance
1 | binds | – | Twist1 (from UniProt Q15672 1-202)
2 | – | binds | Yin Yang 1 (YY1) (from UniProt P25490 1-414)

No constants are given. Whether binding was seen depends on the method and setting. Binding seen in cells or lysates may run through a third protein. These calls come from enrichment with a bait or labelling near it, and not all partners need be listed. Sequences can lack the tags named with a protein.
